Experimental data as given in PMC7947288.
These are yes or no findings as the source states them, for the method shown. Binding seen in cells or lysates may run through a third protein. Some results given as binding are weak or reduced against the parent protein; the word gives no strength. For some of these results: Tags and fused reporters may be left off the sequences shown.

Sequences of proteins named here, by UniProt entry; tags and fusion partners are left off.
UniProt P11142: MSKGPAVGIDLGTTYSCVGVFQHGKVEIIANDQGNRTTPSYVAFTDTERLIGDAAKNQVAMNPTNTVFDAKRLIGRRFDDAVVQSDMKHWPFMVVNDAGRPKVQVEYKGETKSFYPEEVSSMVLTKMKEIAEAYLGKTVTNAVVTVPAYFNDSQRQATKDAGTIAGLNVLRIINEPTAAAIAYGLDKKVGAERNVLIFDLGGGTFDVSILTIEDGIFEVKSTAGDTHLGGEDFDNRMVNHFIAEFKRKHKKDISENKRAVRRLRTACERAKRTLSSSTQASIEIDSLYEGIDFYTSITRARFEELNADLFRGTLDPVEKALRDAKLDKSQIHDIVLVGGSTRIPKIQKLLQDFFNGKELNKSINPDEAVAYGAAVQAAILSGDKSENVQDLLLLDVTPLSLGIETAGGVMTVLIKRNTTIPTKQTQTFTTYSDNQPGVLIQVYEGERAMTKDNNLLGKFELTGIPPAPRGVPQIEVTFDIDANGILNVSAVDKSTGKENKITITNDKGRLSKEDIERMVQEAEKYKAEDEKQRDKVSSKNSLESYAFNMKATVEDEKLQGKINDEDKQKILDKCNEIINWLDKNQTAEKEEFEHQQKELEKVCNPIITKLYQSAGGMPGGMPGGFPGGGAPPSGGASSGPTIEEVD

Columns and labels:
Test in all cases: co-IP; HEK293T co-transfected with Flag-NSD2 isoform and Myc-RPL10 or Myc-HSPA8, lysed after 48 h (20 mM Tris pH 7.5, 150 mM NaCl, 1% Triton X-100); whole-cell lysates precipitated with anti-Flag M2 agarose in the presence or absence of RNase A, ethidium bromide; immunoblot
[1] = target: T1, Flag-tagged NSD2 Isoform 7 (human) (UniProt O96028)
T1 sequence: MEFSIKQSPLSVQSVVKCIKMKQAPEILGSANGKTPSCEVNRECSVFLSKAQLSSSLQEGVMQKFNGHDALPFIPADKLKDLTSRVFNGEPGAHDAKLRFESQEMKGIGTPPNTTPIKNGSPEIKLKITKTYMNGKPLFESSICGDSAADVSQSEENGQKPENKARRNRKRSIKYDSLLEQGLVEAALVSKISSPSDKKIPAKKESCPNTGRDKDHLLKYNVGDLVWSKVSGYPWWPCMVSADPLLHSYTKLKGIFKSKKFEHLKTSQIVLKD

[2] = target: Flag-tagged NSD2 Isoform 1 (human) (UniProt O96028)
[3] = target: T2, Flag-tagged NSD2 Isoform 5 (human) (UniProt O96028)
T2 sequence: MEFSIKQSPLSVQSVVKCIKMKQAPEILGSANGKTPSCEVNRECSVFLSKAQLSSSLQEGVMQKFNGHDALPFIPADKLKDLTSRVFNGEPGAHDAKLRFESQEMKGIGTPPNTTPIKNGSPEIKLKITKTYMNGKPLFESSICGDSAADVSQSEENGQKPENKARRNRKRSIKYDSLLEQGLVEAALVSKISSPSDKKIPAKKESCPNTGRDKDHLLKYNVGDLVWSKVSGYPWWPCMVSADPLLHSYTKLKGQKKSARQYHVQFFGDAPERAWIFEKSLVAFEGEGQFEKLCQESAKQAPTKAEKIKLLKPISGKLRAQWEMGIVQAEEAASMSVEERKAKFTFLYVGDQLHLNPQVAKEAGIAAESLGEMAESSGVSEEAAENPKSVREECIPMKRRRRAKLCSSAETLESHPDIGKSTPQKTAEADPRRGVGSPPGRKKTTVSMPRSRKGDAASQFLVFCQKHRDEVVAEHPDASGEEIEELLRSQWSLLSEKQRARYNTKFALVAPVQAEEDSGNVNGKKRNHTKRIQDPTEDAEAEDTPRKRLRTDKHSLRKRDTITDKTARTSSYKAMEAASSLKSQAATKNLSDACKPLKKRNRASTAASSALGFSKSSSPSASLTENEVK

[4] = target: T3, Flag-tagged NSD2 Isoform 3 (human) (UniProt O96028)
T3 sequence: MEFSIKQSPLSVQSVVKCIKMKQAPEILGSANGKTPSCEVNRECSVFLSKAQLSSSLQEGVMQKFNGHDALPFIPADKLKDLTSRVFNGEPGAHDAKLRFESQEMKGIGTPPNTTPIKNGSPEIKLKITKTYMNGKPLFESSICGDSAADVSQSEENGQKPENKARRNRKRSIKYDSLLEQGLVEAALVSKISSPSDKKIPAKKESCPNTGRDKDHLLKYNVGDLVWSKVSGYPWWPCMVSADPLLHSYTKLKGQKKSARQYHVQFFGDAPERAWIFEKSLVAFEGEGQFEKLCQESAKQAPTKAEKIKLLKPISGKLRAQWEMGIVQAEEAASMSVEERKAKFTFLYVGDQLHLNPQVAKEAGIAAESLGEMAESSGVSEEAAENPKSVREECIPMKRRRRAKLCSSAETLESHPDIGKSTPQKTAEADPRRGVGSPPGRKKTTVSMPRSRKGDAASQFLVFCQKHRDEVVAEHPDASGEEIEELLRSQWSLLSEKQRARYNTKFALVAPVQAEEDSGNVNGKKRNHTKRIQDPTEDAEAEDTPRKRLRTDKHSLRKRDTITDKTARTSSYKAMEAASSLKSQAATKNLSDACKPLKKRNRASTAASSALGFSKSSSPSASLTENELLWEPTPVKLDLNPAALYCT

Measured: binding

Myc-tagged HSPA8 (from UniProt P11142 1-646)
binds: [1] | [2] | [3] | [4]
